HELM strings list residues between dots; [ac] is acetyl, [am] amide, other brackets name non-standard units.
Assay: peptide synthesis
Conditions: whole synthesis

| Substance | purity (crude or final not stated) [%] |
| --- | --- |
| H-Inp-D-Bal-D-Trp-Phe-Lys-NH2 | 99 |
| PEPTIDE1{[Inp].[D-1Nal].[dW].[Taz].[Apc].[am]}$$$$V2.0 | 98 |
| H-Inp-D-Bip-D-Trp-Phe-Lys-NH2 | 99 |
| H-Apc-D-Bal-D-Trp-2Thi-Apc-NH2 | 98 |
| H-Inp-D-1Nal-D-Trp-2Thi-Lys-NH2 | 99 |
| H-Inp-D-Bip-D-Trp-Phe-NH2 | 99 |
| H-Apc-D-Bal-D-2Nal-Phe-Lys-NH2 | 98 |
| H-Apc-D-Bal-D-Trp-Phe-Apc-NH2 | 98 |
| H-Apc-D-Bal-D-Trp-Taz-NH2 | 99 |
| PEPTIDE1{[Apc].[D-1Nal].[dW].F.[am]}$$$$V2.0 | 99 |
| PEPTIDE1{[Inp].[D-2Nal].[dW].[Taz].[am]}$$$$V2.0 | 98 |
| H-Apc-D-Bal-D-2Nal-Phe-Apc-NH2 | 94 |
| H-Apc-D-1Nal-D-1Nal-Phe-Apc-NH2 | 95 |
| PEPTIDE1{[Inp].[D-1Nal].[dW].[Taz].K.[am]}$$$$V2.0 | 99 |
| H-Inp-D-2Nal-D-Trp-Thr(Bzl)-Lys-NH2 | 98 |
| H-Inp-D-2Nal-D-Trp-4Pal-NH2 | 98 |
| H-Inp-D-2Nal-D-Trp-Pff-Lys-NH2 | 98 |
| H-Apc-D-1Nal-D-Trp-2Thi-Apc-NH2 | 97 |
| H-Inp-D-Dip-D-Trp-Phe-NH2 | 98 |
| H-Apc-D-Bal-D-Trp-Taz-Lys-NH2 | 99 |
| H-Inp-D-2Nal-D-Trp-4Pal-Lys-NH2 | 99 |
| H-Inp-D-Bal-D-Trp-Phe-NH2 | 97 |

| Substance | purity (crude or final not stated) [%] |
| --- | --- |
| H-Inp-D-1Nal-D-Trp-Phe-Apc-NH2 | 98 |
| H-Inp-D-Bal-D-Trp-Taz-Lys-NH2 | 99 |
| H-Apc-D-Bal-D-1Nal-Phe-Apc-NH2 | 96 |
| H-Inp-D-1Nal-D-Trp-2Thi-NH2 | 98 |
| H-Apc-D-Bal-D-Trp-2Thi-Lys-NH2 | 98 |
| H-Inp-D-2Nal-D-Trp-Pff-NH2 | 99 |
| H-Apc-D-1Nal-D-2Nal-Phe-Apc-NH2 | 96 |
| H-Inp-D-2Nal-D-Bal-Phe-NH2 | 99 |
| H-Inp-D-2Nal-D-Dip-Phe-NH2 | 99 |
| H-Apc-D-Bal-D-Trp-Phe-Lys-NH2 | 99 |
| H-Inp-D-2Nal-D-Trp-3Pal-Lys-NH2 | 97 |
| H-Inp-D-Bal-D-Trp-2Thi-Apc-NH2 | 97 |
| H-Apc-D-Bal-D-Trp-Phe-NH2 | 99 |
| H-Inp-D-2Nal-D-Trp-Thi-Lys-NH2 | 98 |
| H-Apc-D-1Nal-D-Trp-Taz-NH2 | 99 |
| H-Apc-D-2Nal-D-Trp-Taz-NH2 | 97 |
| H-Inp-D-2Nal-D-Trp-Thr(Bzl)-NH2 | 99 |
| H-Inp-D-2Nal-D-Trp-2Thi-NH2 | 99 |
| H-Inp-D-2Nal-D-Trp-Phe-Apc-NH2 | 98 |
| H-Apc-D-1Nal-D-Trp-2Thi-NH2 | 98 |
| H-Inp-D-Dip-D-Trp-Phe-Lys-NH2 | 98 |
| H-Inp-D-1Nal-D-Trp-3Pal-NH2 | 98 |

| Substance | purity (crude or final not stated) [%] |
| --- | --- |
| PEPTIDE1{[Inp].[D-2Nal].[dW].[Taz].K.[am]}$$$$V2.0 | 97 |
| H-Apc-D-Bal-D-Trp-Taz-Apc-NH2 | 98 |
| H-Apc-D-1Nal-D-Trp-Phe-Apc-NH2 | 98 |
| H-Apc-D-1Nal-D-Trp-Phe-Lys-NH2 | 98 |
| H-Apc-D-2Nal-D-Trp-2Thi-NH2 | 95 |
| H-Apc-D-1Nal-D-Trp-2Thi-Lys-NH2 | 99 |
| H-Inp-D-2Nal-D-Trp-Orn-Lys-NH2 | 98 |
| H-Inp-D-Bal-D-Trp-Phe-Apc-NH2 | 97 |
| H-Apc-D-Bal-D-Trp-2Thi-NH2 | 97 |
| H-Inp-D-1Nal-D-Trp-3Pal-Lys-NH2 | 96 |
| H-Inp-D-Bpa-D-Trp-Phe-Lys-NH2 | 95 |
| H-Inp-D-Bal-D-Trp-Taz-Apc-NH2 | 99 |
| H-Inp-D-1Nal-D-Trp-2Thi-Apc-NH2 | 97 |
| H-Apc-D-1Nal-D-Trp-Taz-Lys-NH2 | 99 |
| H-Apc-D-Bal-D-1Nal-Phe-Lys-NH2 | 99 |
| H-Apc-D-1Nal-D-1Nal-Phe-Lys-NH2 | 99 |
| H-Inp-D-2Nal-D-Trp-3Pal-NH2 | 99 |
| H-Inp-D-2Nal-D-Bpa-Phe-Lys-NH2 | 99 |
| H-Apc-D-1Nal-D-Trp-Taz-Apc-NH2 | 99 |
| H-Inp-D-Bal-D-Trp-2Thi-Lys-NH2 | 99 |
| H-Apc-D-2Nal-D-Trp-Phe-Lys-NH2 | 98 |

Source: patent US20160220637A1 (Ipsen Pharma S.A.S., priority 2010, published 2016)
